The results in this text go back to article PMC12677674.

Sequences of proteins named here, by UniProt entry; tags and fusion partners are left off.
UniProt Q9R117: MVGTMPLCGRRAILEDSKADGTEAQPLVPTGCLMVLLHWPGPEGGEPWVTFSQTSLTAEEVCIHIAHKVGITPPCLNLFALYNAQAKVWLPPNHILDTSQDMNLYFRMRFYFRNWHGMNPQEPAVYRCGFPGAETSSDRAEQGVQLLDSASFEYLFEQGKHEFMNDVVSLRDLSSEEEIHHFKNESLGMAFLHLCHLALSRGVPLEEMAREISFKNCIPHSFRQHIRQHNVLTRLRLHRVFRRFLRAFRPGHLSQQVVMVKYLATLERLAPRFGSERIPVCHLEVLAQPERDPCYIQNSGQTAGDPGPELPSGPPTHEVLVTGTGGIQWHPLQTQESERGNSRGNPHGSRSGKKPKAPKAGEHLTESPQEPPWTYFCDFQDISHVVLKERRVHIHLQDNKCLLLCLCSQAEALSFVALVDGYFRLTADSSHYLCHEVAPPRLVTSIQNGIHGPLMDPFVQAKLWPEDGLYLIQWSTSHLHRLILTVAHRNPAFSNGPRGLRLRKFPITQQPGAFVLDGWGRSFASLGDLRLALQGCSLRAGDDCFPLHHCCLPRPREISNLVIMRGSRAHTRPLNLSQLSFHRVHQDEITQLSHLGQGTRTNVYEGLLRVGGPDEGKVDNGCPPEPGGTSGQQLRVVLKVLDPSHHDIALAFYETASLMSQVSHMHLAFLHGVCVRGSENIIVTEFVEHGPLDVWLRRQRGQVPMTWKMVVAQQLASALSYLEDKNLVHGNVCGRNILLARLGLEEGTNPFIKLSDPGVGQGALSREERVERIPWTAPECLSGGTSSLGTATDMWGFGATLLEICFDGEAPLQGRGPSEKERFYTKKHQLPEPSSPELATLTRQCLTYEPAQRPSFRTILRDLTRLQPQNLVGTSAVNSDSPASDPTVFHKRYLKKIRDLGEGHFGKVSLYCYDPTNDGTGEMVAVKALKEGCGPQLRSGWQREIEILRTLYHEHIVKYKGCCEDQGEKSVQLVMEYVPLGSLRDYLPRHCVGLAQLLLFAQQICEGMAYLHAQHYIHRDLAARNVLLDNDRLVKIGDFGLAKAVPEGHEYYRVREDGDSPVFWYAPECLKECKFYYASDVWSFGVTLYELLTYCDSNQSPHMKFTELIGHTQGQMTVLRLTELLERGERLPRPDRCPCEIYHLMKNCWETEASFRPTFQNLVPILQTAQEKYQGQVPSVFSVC
UniProt P52332: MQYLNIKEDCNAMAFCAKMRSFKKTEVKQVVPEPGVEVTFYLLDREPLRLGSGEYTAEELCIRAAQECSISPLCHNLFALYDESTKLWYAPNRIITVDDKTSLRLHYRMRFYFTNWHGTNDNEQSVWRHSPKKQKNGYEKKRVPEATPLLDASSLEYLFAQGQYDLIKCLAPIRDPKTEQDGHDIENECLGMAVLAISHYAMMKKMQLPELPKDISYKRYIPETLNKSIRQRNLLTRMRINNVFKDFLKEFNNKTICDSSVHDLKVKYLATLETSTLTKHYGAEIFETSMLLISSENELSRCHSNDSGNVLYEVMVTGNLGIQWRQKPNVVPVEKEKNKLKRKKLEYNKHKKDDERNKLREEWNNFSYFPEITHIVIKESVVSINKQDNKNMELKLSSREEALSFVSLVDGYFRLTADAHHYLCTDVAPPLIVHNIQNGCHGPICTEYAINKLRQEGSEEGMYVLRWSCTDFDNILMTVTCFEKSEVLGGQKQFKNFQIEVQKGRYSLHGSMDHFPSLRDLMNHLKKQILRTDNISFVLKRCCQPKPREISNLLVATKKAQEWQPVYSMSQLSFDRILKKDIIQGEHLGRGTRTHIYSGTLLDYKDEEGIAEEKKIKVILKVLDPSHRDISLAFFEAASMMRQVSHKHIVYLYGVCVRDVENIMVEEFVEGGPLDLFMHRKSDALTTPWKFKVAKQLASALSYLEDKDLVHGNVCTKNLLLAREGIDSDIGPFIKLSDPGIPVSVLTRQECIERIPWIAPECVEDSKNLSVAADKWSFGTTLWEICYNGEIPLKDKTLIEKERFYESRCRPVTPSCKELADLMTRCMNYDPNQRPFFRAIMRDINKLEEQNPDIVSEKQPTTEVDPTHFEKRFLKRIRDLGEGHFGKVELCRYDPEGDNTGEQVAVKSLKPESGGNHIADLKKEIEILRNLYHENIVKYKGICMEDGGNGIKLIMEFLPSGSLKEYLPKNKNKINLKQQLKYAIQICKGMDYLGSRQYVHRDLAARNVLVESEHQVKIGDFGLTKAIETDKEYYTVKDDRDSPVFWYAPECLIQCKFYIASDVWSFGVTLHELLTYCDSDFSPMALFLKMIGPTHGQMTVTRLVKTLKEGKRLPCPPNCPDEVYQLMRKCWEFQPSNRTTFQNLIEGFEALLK
UniProt Q62120: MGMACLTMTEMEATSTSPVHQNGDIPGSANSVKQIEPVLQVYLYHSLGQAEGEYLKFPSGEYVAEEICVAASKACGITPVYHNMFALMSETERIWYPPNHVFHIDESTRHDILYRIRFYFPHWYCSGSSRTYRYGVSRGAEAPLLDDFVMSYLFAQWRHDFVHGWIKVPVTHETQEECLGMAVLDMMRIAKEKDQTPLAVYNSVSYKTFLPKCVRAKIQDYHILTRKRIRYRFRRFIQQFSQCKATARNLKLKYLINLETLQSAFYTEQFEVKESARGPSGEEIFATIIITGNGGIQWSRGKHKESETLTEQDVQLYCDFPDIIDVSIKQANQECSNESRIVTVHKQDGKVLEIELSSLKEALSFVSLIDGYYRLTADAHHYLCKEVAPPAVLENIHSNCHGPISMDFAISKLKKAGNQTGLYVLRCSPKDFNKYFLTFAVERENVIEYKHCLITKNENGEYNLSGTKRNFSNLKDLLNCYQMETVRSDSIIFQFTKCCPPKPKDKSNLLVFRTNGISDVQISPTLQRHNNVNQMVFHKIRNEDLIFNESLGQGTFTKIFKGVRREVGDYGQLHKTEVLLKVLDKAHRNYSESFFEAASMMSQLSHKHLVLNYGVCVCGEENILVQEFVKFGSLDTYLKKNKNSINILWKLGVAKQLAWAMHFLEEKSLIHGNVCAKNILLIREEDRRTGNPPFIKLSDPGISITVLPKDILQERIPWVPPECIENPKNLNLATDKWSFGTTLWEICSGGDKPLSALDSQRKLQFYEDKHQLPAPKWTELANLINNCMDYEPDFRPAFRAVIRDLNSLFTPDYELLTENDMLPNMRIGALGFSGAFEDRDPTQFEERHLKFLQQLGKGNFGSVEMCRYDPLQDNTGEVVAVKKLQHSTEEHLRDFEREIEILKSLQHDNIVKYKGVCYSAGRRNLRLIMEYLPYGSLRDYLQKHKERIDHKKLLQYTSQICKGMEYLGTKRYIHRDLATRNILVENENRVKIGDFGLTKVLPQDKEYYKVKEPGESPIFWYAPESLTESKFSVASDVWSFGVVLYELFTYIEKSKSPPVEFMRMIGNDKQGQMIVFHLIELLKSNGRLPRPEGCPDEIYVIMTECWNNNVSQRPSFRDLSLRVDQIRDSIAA

Results are given in words; binding and its absence hold for the method and conditions named. In cells and extracts the contact can be indirect. Some binding calls cover weakened binding; strength is not graded here.

To fix the notation:
T1: Receptor-interacting serine/threonine-protein kinase 1 (mouse (endogenous in MLE-12)) (UniProt Q60855)
T1 sequence: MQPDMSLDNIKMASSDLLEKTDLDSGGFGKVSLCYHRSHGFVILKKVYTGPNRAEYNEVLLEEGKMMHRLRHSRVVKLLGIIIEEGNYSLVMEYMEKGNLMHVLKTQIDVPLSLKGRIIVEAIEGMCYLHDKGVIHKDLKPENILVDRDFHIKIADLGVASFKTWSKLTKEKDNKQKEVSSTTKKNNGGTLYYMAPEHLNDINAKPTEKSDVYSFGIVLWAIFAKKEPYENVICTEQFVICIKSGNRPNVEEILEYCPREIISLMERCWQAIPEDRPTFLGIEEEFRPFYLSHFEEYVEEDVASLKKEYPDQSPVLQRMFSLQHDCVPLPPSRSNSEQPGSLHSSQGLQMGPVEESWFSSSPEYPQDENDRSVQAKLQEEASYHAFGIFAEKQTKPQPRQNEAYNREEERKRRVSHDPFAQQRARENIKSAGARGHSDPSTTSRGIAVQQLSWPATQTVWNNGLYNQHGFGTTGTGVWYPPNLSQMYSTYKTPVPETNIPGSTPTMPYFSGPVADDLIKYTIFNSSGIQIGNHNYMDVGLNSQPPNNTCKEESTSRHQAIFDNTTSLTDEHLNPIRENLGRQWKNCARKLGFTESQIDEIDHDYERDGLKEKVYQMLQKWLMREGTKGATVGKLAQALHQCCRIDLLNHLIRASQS

B1: JAK3 (protein, UniProt Q62137 1-1100)
chain: MAPPSEETPLIPQRSCSLSSSEAGALHVLLPPRGPGPPQRLSFSFGDYLAEDLCVRAAKACGILPVYHSLFALATEDFSCWFPPSHIFCIEDVDTQVLVYRLRFYFPDWFGLETCHRFGLRKDLTSAILDLHVLEHLFAQHRSDLVSGRLPVGLSMKEQGEFLSLAVLDLAQMAREQAQRPGELLKTVSYKACLPPSLRDVIQGQNFVTRRRIRRTVVLALRRVVACQADRYALMAKYILDLERLHPAATTETFRVGLPGAQEEPGLLRVAGDNGISWSSGDQELFQTFCDFPEIVDVSIKQAPRVGPAGEHRLVTVTRMDGHILEAEFPGLPEALSFVALVDGYFRLICDSRHYFCKEVAPPRLLEEEAELCHGPITLDFAIHKLKAAGSLPGTYILRRSPQDYDSFLLTACVQTPLGPDYKGCLIRQDPSGAFSLVGLSQPHRSLRELLAACWNSGLRVDGAALNLTSCCAPRPKEKSNLIVVRRGCTPAPAPGCSPSCCALTQLSFHTIPTDSLEWHENLGHGSFTKIFRGRRREVVDGETHDSEVLLKVMDSRHRNCMESFLEAASLMSQVSYPHLVLLHGVCMAGDSIMVQEFVYLGAIDMYLRKRGHLVSASWKLQVTKQLAYALNYLEDKGLPHGNVSARKVLLAREGGDGNPPFIKLSDPGVSPTVLSLEMLTDRIPWVAPECLQEAQTLCLEADKWGFGATTWEVFSGGPAHITSLEPAKKLKFYEDQGQLPALKWTELAGLITQCMAYDPGRRPSFRAILRDLNGLITSDYELLSDPTPGIPSPRDELCGGAQLYACQDPAIFEERHLKYISLLGKGNFGSVELCRYDPLGDNTGPLVAVKQLQHSGPDQQRDFQREIQILKALHSDFIVKYRGVSYGPGRQSLRLVMEYLPSGCLRDFLQRHRARLHTDRLLLFAWQICKGMEYLGARRCVHRDLAARNILVESEAHVKIADFGLAKLLPLGKDYYVVREPGQSPIFWYAPESLSDNIFSRQSDVWSFGVVLYELFTYCDKSCSPSAEFLRMMGPEREGPPLCRLLELLAEGRRLPPPPTCPTEVQELMQLCWAPSPHDRPAFGTLSPQLDALWRGRPG

For the assay, the target named is T1, Receptor-interacting serine/threonine-protein kinase 1 (mouse (endogenous in MLE-12)). Briefly: co-IP; endogenous proteins in MLE-12 lysate (cells stimulated with 1 ug/mL LPS for 24 h; also with or without siRipk1 and LPS); 2000 ug total protein incubated overnight at 4 °C with anti-RIPK1 or anti-JAK1 or normal rabbit IgG, Protein A/G magnetic beads, five washes with IP lysis buffer, Western blot. Background: In western blotting, separated proteins are transferred to a membrane and probed.
With TYK2 (from UniProt Q9R117 1-1184), the binding entry was “no binding”.
For JAK1 (from UniProt P52332 1-1153), the binding entry is reported as “binds”.
JAK2 (from UniProt Q62120 1-1132): the binding entry is listed as “no binding”.
Next, B1: “no binding”.
